Experimental data from article PMC7819943, “Rice protein-binding microarrays: a tool to detect cis-acting elements near promoter regions in rice”.
The list shows a part of the results.

target: T1, OsSMF1 (Oryza sativa, UniProt Q6ZLB0 1-436); test: protein-binding microarray (RPBM); PBS, 2% BSA, 51.3 ng/ul salmon testes DNA, 50 uM zinc acetate, 200 nM TF, 25 C, 1 h; high values mean tight binding; settings: protein: recombinant; tags: N-terminal polyhistidine and DsRed monomer fusion (pET32a); chain copies: 2; label: CyDye5-dUTP incorporated in the synthesized complementary strand; 3' TTTTT single-stranded linker to array surface; dsDNA, one strand shown
T1 sequence: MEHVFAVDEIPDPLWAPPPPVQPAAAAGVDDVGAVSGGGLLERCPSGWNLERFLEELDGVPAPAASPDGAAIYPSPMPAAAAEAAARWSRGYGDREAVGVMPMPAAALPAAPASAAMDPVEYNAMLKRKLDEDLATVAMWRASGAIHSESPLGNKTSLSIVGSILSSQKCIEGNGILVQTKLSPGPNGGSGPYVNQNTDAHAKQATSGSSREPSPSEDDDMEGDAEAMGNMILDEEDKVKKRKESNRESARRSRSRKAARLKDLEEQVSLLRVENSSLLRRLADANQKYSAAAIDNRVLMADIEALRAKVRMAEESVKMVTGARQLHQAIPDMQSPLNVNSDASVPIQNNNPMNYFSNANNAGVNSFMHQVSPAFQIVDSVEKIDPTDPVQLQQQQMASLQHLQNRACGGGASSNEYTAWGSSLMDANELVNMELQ
Outline: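 The binding signal for each feature is its fluorescence intensity in arbitrary units. An Axon 4000B scanner was used to read a custom Agilent array that had been made double-stranded with Cy5-dUTP primer extension, blocked with 2% BSA, incubated at 25 °C for 1 h with 200 nM protein in PBS, 2% BSA, salmon testes DNA and 50 µM zinc acetate, and washed. The protein was an N-terminal polyhistidine–DsRed transcription factor fusion from E. coli BL21-CodonPlus, purified on Ni–NTA.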

Sequence | binding signal
CTCCTTGGCCCGTTTGGTCTCTGTGTGGGTTGGTAAAGACCGGAGTCACCTAGTGCAG | 3330 fluorescence intensity (a.u.)
AATCGAACAGGCTGAGGTATTCCACGATCGCACACTTACCCGGAGTCACCTAGTGCAG | 3430 fluorescence intensity (a.u.)
TTCTAGGTCATGAAAGAATCCAACGTGGCCGTATTATCACCGGAGTCACCTAGTGCAG | 7840 fluorescence intensity (a.u.)
TCACTCCCCAAGAAAGCACAAAGCCACATCAACCTCACCTCGGAGTCACCTAGTGCAG | 3300 fluorescence intensity (a.u.)
GCATTGAGGCCCATCTAAAAGAATATGTGGCCTTGTTTGGCGGAGTCACCTAGTGCAG | 3230 fluorescence intensity (a.u.)
GATGCTTTCTTAAGATTTAGATATTTCTAGTCTTATGCTTCGGAGTCACCTAGTGCAG | 3470 fluorescence intensity (a.u.)
GGCAGATATTAAGAACGCAATGACACGGCTATTTATAGCACGGAGTCACCTAGTGCAG | 3560 fluorescence intensity (a.u.)
TCCCAAACCCCGCGCCGCCTCTTACCGCTTCGCGTCAGCTCGGAGTCACCTAGTGCAG | 63900 fluorescence intensity (a.u.)
AGCTCGTGACGTTAATCTCCGTATAACCAAGCCATGTTGTCGGAGTCACCTAGTGCAG | 6620 fluorescence intensity (a.u.)
GCGCGCGCCATCTCGCTGATTCGACCGCGAAATTTTCAGTCGGAGTCACCTAGTGCAG | 3740 fluorescence intensity (a.u.)
GTTATCGTCATTACGTCAATACGTGTTTTCGAAAATAATTCGGAGTCACCTAGTGCAG | 4860 fluorescence intensity (a.u.)
AAAAGGGCATCGATACCATCTCAATAATGCAGTATGACAACGGAGTCACCTAGTGCAG | 5520 fluorescence intensity (a.u.)
GCCAACTGGCCGCTCCGCCCCGCGTCGTGCCCTCTCCGGCCGGAGTCACCTAGTGCAG | 16900 fluorescence intensity (a.u.)
TCTTCCAAGTAGGAAAATATGCTGACATAGATCTCTTGTACGGAGTCACCTAGTGCAG | 3660 fluorescence intensity (a.u.)
ATCTCTATCCACCCTCTCTCGTTTACTCTCTCTCTTTCCCCGGAGTCACCTAGTGCAG | 3360 fluorescence intensity (a.u.)
GTAATGAGCTTTTCACGACTTTGTTGAATTTGCTATTATTCGGAGTCACCTAGTGCAG | 26800 fluorescence intensity (a.u.)
AGTTGTCTTTGGATGTTTGCACTGTCCCATGACGTGATGCCGGAGTCACCTAGTGCAG | 4260 fluorescence intensity (a.u.)
CCAGCACTGAAAGCTACTGCCACCTCATATGCTGACAAGGCGGAGTCACCTAGTGCAG | 16800 fluorescence intensity (a.u.)
CGAGGCATGCCCCGGTGTTGCTGACGAGGGCCTCAAGGCGCGGAGTCACCTAGTGCAG | 8090 fluorescence intensity (a.u.)
GGGAATATATGCATTGTATCGTATGTGTTTCAGGCACAAGCGGAGTCACCTAGTGCAG | 16700 fluorescence intensity (a.u.)
ATTTGCAAAAGGGGAATGCTTGTGCTCAAAAGGATGAGTGCGGAGTCACCTAGTGCAG | 3800 fluorescence intensity (a.u.)

Part of the list above, reformatted:
CTCCTTGGCCCGTTTGGTCTCTGTGTGGGTTGGTAAAGACCGGAGTCACCTAGTGCAG
  binding signal = 3330 fluorescence intensity (a.u.)
AATCGAACAGGCTGAGGTATTCCACGATCGCACACTTACCCGGAGTCACCTAGTGCAG
  binding signal = 3430 fluorescence intensity (a.u.)
TTCTAGGTCATGAAAGAATCCAACGTGGCCGTATTATCACCGGAGTCACCTAGTGCAG
  binding signal = 7840 fluorescence intensity (a.u.)
TCACTCCCCAAGAAAGCACAAAGCCACATCAACCTCACCTCGGAGTCACCTAGTGCAG
  binding signal = 3300 fluorescence intensity (a.u.)

(next part)

Sequence | binding signal
CTGGGCAAAATCTCTCCCATACATACACTACAGCGGCGAACGGAGTCACCTAGTGCAG | 3290 fluorescence intensity (a.u.)
CTCAATGTCTCGAATGCGTCATCGAGCAAAAGTAATCAGGCGGAGTCACCTAGTGCAG | 4660 fluorescence intensity (a.u.)
ATATTAAACTGTCTAAGAACATAACTCGAATCCGTATTAACGGAGTCACCTAGTGCAG | 4930 fluorescence intensity (a.u.)
CCATGGCGGGGTGTATTGTTGTTGTATTTGGGGTTCTGGTCGGAGTCACCTAGTGCAG | 3630 fluorescence intensity (a.u.)
GGCAGCCACGTCCACCTGTCCCTCCACGCCCCTCCCGTGCCGGAGTCACCTAGTGCAG | 9530 fluorescence intensity (a.u.)
CAAATCCAAAACCCTTGCTCCCACAGGAGTGAACACGACGCGGAGTCACCTAGTGCAG | 3400 fluorescence intensity (a.u.)
TCTAGTTAATACGTGTGCTTGGGAGTCCTTGCAATTTGAACGGAGTCACCTAGTGCAG | 3800 fluorescence intensity (a.u.)
ACCCAAACTGGAAACGTGAAGGGCCCGTGAAATAAGAGATCGGAGTCACCTAGTGCAG | 36900 fluorescence intensity (a.u.)
GGCCATCACAGTCATAAGTTAGACACGTTATTATTGATGGCGGAGTCACCTAGTGCAG | 35100 fluorescence intensity (a.u.)
ATTTTCTGTTAAACTTTTGATTGGATCCATCTTTGTAATCCGGAGTCACCTAGTGCAG | 35400 fluorescence intensity (a.u.)
TGACTGCTGGCTCACATCCAGTCATTGGCTTAGCTAGCTGCGGAGTCACCTAGTGCAG | 4160 fluorescence intensity (a.u.)
TTCTATTCTCCCAAAATTCCTATAGAACGAGATATTCCATCGGAGTCACCTAGTGCAG | 22200 fluorescence intensity (a.u.)
AGCCTATGGCGCCACGACGACGGGTGCATGGCGTGGCTAGCGGAGTCACCTAGTGCAG | 3750 fluorescence intensity (a.u.)
ATCCCGGGGAAAATCCGCACCGAGCAACCGACGTGTTCCGCGGAGTCACCTAGTGCAG | 3530 fluorescence intensity (a.u.)
GAAGGCGCTGCTGTCGTGGGCGGTGGAGGAGCTCCCCATGCGGAGTCACCTAGTGCAG | 4110 fluorescence intensity (a.u.)
TGCAAATCCAATCCAATCCAATCCCACCCCAAGCTCGCGGCGGAGTCACCTAGTGCAG | 3670 fluorescence intensity (a.u.)
TGATTTCGTTTCGACGATCTCGAGGCGCCGCGGCGTGACGCGGAGTCACCTAGTGCAG | 29200 fluorescence intensity (a.u.)
GCATATAAACTTAGTGGGTGATCAATAACCGACTTTGCATCGGAGTCACCTAGTGCAG | 3240 fluorescence intensity (a.u.)
CCGCGACCAACGCGAGGCGAGCGAGACGCGTCATCTCGCCCGGAGTCACCTAGTGCAG | 8540 fluorescence intensity (a.u.)
ACCTTTAGCTTTTCCTGCCTCCCTCCTTCTTTCCCTCCTCCGGAGTCACCTAGTGCAG | 21900 fluorescence intensity (a.u.)
CCAGTTCGGGATGGGCCCCAGCCAGGTCATCCCTCGCCGGCGGAGTCACCTAGTGCAG | 7160 fluorescence intensity (a.u.)
